Source: patent US20210395704A1
No constants are given. Whether binding was seen depends on the method and setting. Binding seen in cells or lysates may run through a third protein. Some binding calls cover weakened binding; strength is not graded here. Where a sequence is shown, tags or fusion partners need not be part of it.

By UniProt entry, the sequences of proteins in these tests, tags left out. Where a name states a change or a piece, a line headed by the entry shows the natural chain unless it says otherwise.
UniProt P37198: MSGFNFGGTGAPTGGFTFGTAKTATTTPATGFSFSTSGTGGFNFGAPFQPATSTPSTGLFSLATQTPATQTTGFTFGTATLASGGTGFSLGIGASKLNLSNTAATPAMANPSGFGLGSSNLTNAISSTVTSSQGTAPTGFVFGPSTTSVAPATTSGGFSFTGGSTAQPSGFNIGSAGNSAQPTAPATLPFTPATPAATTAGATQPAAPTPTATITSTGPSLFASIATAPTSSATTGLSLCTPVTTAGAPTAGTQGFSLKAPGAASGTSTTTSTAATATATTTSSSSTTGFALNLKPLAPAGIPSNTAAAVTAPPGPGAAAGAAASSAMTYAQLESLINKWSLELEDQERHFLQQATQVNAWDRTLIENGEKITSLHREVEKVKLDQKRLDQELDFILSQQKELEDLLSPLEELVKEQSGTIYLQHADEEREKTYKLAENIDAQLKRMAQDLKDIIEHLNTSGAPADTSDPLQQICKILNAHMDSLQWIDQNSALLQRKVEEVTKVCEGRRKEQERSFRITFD

Biological target: Nup62-Flag-EPEA (UniProt P37198)
Assay: co-immunoprecipitation (pull-down of OGT or of Nup62) from transfected cells

binding: binds
B1: HA-nEPEA-OGT(13) (protein)
chain: MAYPYDVPDYAAIAMGQLVESGGGSVQAGGSLRLSCAASGIDSSSYCMGWFRQRPGKEREGVARINGLGGVKTAYADSVKDRFTISRDNAENTVYLQMNSLKPEDTAIYYCAAKFSPGYCGGSWSNFGYWGQGTQVTVSSGAPEAAAKEAAAKEAAAKEAAAKGSMASSVGNVADSTEPTKRMLSFQGLAELAHREYQAGDFEAAERHCMQLWRQEPDNTGVLLLLSSIHFQCRRLDRSAHFSTLAIKQNPLLAEAYSNLGNVYKERGQLQEAIEHYRHALRLKPDFIDGYINLAAALVAAGDMEGAVQAYVSALQYNPDLYCVRSDLGNLLKALGRLEEAKACYLKAIETQPNFAVAWSNLGCVFNAQGEIWLAIHHFEKAVTLDPNFLDAYINLGNVLKEARIFDRAVAAYLRALSLSPNHAVVHGNLACVYYEQGLIDLAIDTYRRAIELQPHFPDAYCNLANALKEKGSVAEAEDCYNTALRLCPTHADSLNNLANIKREQGNIEEAVRLYRKALEVFPEFAAAHSNLASVLQQQGKLQEALMHYKEAIRISPTFADAYSNMGNTLKEMQDVQGALQCYTRAIQINPAFADAHSNLASIHKDSGNIPEAIASYRTALKLKPDFPDAYCNLAHCLQIVCDWTDYDERMKKLVSIVAEQLEKNRLPSVHPHHSMLYPLSHGFRKAIAERHGNLCLDKINVLHKPPYEHPKDLKLSDGRLRVGYVSSDFGNHPTSHLMQSIPGMHNPDKFEVFCYALSPDDGTNFRVKVMAEANHFIDLSQIPCNGKAADRIHQDGIHILVNMNGYTKGARNELFALRPAPIQAMWLGYPGTSGALFMDYIITDQETSPAEVAEQYSEKLAYMPHTFFIGDHANMFPHLKKKAVIDFKSNGHIYDNRIVLNGIDLKAFLDSLPDVKIVKMKCPDGGDNPDSSNTALNMPVIPMNTIAEAVIEMINRGQIQITINGFSISNGLATTQINNKAATGEEVPRTIIVTTRSQYGLPEDAIVYCNFNQLYKIDPSTLQMWANILKRVPNSVLWLLRFPAVGEPNIQQYAQNMGLPQNRIIFSPVAPKEEHVRRGQLADVCLDTPLCNGHTTGMDVLWAGTPMVTMPGETLASRVAASQLTCLGCLELIAKSRQEYEDIAVKLGTDLEYLKKIRGKVWKQRISSPLFNTKQYTMELERLYLQMWEHYAAGNKPDHMIKPVEVTESA
